From patent US20160257651A1, “NOVEL COMPOUND WITH ANTIBACTERIAL ACTIVITY” (priority 2013, published 2016)
At least one structure is not confirmed: it was looked up by name or label, or the drawing left a doubt.

Legend:
GyrA (S84L) + GyrB (wt) = target: T1, GyrA (S84L) + GyrB (wt) (Staphylococcus aureus, UniProt P20831, S84L); experiment: DNA cleavage assay using DNA gyrase; type: biochemical; details: FIG. 2; levofloxacin at 16 μg/mL
T1 construct: made in house; host or cells: E. coli BL21(DE3)
Procedure: (§1) To the culture medium of the resulting transformed Escherichia coli 1 mM isopropyl-8-thiogalactopyranoside (produced by Wako Pure Chemical Industries) was added to induce expression of maltose-binding GyrA(wt), maltose-binding GyrB(wt), or maltose-binding mutant GyrA(S84L), and the bacterium was cultured overnight at 25° C.
(§2) Then, each disrupted cell suspension was added to a column filled with an amylose resin covalently bound with maltose (produced by Novagen). A buffer (20 mM Tris-HCl (pH 8.0), 200 mM sodium chloride, 1 mM EDTA) containing 10 mM maltose was added to the column to elute the maltose-binding GyrA(wt), maltose-binding GyrB(wt), and maltose-binding mutant GyrA(S84L). […]
Then, the total value of the intensities of the bands of “S”, “L”, and “N” was calculated for each concentration, and the result was used as “total DNA amount” (equation 1 mentioned below). Further, the total value of the intensities of the bands of “L” and “N” was also calculated, and the result was used as “amount of cleaved DNA” (equation 2 mentioned below). Then, the ratio (%) of the amount of the substrate plasmid DNA to the total DNA amount was calculated in accordance with the following equation 3, and the ratio (%) of the amount of the cleaved DNA to the total DNA amount was calculated in accordance with the following equation 4.

GyrA (wt) + GyrB (wt) = target: T2, GyrA (wt) + GyrB (wt) (Staphylococcus aureus, UniProt P20831); experiment: DNA cleavage assay using DNA gyrase; type: biochemical; details: FIG. 1; levofloxacin at 16 μg/mL
T2 construct: made in house; host or cells: E. coli BL21(DE3)
Procedure: as §1, §2
Then, the total value of the intensities of the bands of “S”, “L”, and “N” was calculated for each concentration, and the result was used as “total DNA amount” (equation 1 mentioned below). Further, the total value of the intensities of the bands of “L” and “N” was also calculated, and the result was used as “amount of cleaved DNA” (equation 2 mentioned below). Then, the ratio (%) of the amount of the substrate plasmid DNA to the total DNA amount was calculated in accordance with the following equation 3, and the ratio (%) of the amount of the cleaved DNA to the total DNA amount was calculated in accordance with the following equation 4. […]

| SMILES | inhibitory activity against the mutant DNA gyrase (GyrA(S84L)) (in words) (GyrA (S84L) + GyrB (wt)) | inhibitory activity against the wild-type DNA gyrase (in words) (GyrA (wt) + GyrB (wt)) |
| --- | --- | --- |
| C[C@H]1COc2c(N3CCN(C)CC3)c(F)cc3c(=O)c(C(=O)O)cn1c23 [LVX, levofloxacin] | almost no inhibitory activity | potent inhibitory activity |
| O=c1cc(CO)c2cc(F)c(-c3ccc(O)cc3)cc2n1C1CC1 [J-131CP, 1-cyclopropyl-6-fluoro-4-(hydroxymethyl)-7-(4-hydroxyphenyl)-1,2-dihydroquinolin-2-one] | higher inhibitory activity | inhibitory activity against the wild-type DNA gyrase at a lower concentration compared with levofloxacin |
